Measured values from PMC8871863, “Initiator-Directed Transcription: Fission Yeast Nmtl Initiator Directs Preinitiation Complex Formation and Transcriptional Initiation” (Genes, 2022).

Molecular target: TAF1 (S. pombe (endogenous in whole-cell extract))
Assay: immunodepletion of extract on anti-TAF1 Sepharose, Western blot of the depleted extract; whole-cell extract of the TAP-tagged Med7 strain over a column of rabbit anti-TAF1 (1 mg/mL) crosslinked to CNBr-activated Sepharose; depleted extract blotted

B1: TAF5 (protein, UniProt O13282 1-643)
chain: MSATNGPQPQDLNRIVLDYLAKKGYSRTEAMLRLEASGSGVSVEEKLKSIEETPDAYTHTYTILRDWVDSSLELYKAELHRILFPIFVHSYLNLLSQDHYEAAKQFYELFKDDHTDLHDFDVKNLKSLSLPSHVAEDRTAQQYRQNKYQLHFSRITFDLLLHFLFENVSNGGSIIIKLINQHIDIHIVPGRPTVLENAKVINEQEGITGQSFERGDAQLQPVKLQQMPMDKEMEKIVEMDLEEEDMMHQNDPNNQSPKLLKEFRKLHEPNAEDAPSRDYIPLPPHKGVDILSEVEAVKDWSKRLHLGPRASLPSVCMYTFHHTNNNMNCAEFSPDSTMIACGFQESYIRLWSIKADKKSLPKSTSVEDSDGSVRLLSHSGPVYGTTFSPDNKYLLSCSEDASARLWSVDTKTALVAYKGHTGPVWDVAFGPFGHYFATASHDQTAQLWSCDHIYPLRVFAGHLSDVDCVTFHPNSAYVLTGSSDKTCRLWDVHRGHSVRVFNGHTQPVTAVAIAPDGHTMASADSEGLIHLWDIGTGRRIKTMRGHRGNIYSLSFSRESTVLVSGGSDCTVRAWDVFKTNYNNPVSSSLTGSVVTPFSAKTSTFNEVNWSTSPDQMVALYTKQTPIFNVSFTRRNLCLAISVS
For B1, the binding was “binds”.

Results are given in words; binding and its absence hold for the method and conditions named. A result given as binding can be weak or reduced; the word gives no strength.
